# Assay results from patent publication US4156777A, “Process for producing glucopyranose-nitrosourea compounds and novel compounds included therein” (Tokyo Tanabe Company, Limited, priority 1977, dated 1979).
# At least one structure is not confirmed: it was looked up by name or label, or the drawing left a doubt.
# Test system: various kinds of bacteria
# Assay: Antibacterial activity (overall statement)
# Format: cell-based
# Settings: Table VI
# From the text: Using 6DCNU and 6MCαG, minimum inhibiting concentrations (referred to as "MIC") for various kinds of bacteria were estimated by means of the broth-dilution method.
smiles,measurement,value
"CO[C@H]1O[C@H](CNC(=O)N(CCCl)N=O)[C@@H](O)[C@H](O)[C@H]1O [Example 6MCαG, 1-(2-chloroethyl)-3-(methyl α-D-glucopyranos-6-yl)-1-nitrosourea]","antibacterial activity, in words",no substantial antibacterial activity
